# Source: the supplement of paper PMC8728848
# The other results are listed elsewhere or left out.
# B1: AT3G09350(27) (Arabidopsis thaliana), Q84J81 (protein)
# chain: MAKDGPNWDGLLKWSLSHADGTRPTRQLSEEDRKWFMEAMQSQTVDVVKRMKEITLVMQTPEQVLVEHGVTPEDIQDLLDELQEHVESIDMANDLHSIGGLVPLLSFLKNSHANIRAKAADVVSTIVQNNPRSQELVMETNALESLLSNFTSDTDIHARTQALGAISSLIRHNKPGVTAFKLANGYAGLRDALASDSVRFQRKALNLLQYLLQEDDSDRSIATGLGFPRVMMHLASSDDAEIREAALRGLLELSREKNDGSSSIDKSDEKLRQLLEERIKGITLMSQEDLETVKEERQLVDLLWSICYNEPSSLREKGLVVLPGEDALPPDVASKLFEPPLRASAANRNATEKKDEPMKLLGP
# What was measured:
# Assay in all cases: glycan array binding signal (z-score within array); higher = stronger binding
# Details in all cases: glycan notation: IUPAC condensed, linker removed
# [1] = molecular target: Gal(b1-3)GlcNAc(b1-2)Man(a1-3)[Gal(b1-3)GlcNAc(b1-2)Man(a1-6)]Man(b1-4)GlcNAc(b1-4)GlcNAc
# Procedure, shortened: (§1)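 Columns mapping to the same glycan were averaged after glycan names were converted to IUPAC-condensed notation. The data come from 3228 arrays in the Consortium for Functional Glycomics database, limited to those with an available protein sequence. Binding is reported as a within-array Z-score averaged across arrays of one protein sequence and across linkers.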
# [2] = molecular target: Gal(b1-3)GlcNAc(b1-2)Man(a1-3)[Gal(b1-3)GlcNAc(b1-2)Man(a1-6)]Man(b1-4)GlcNAc(b1-4)[Fuc(a1-6)]GlcNAc
# Procedure, shortened: as §1
# [3] = molecular target: Gal(b1-3)GlcNAc(b1-2)Man(a1-3)[GlcNAc(b1-4)][Gal(b1-3)GlcNAc(b1-2)Man(a1-6)]Man(b1-4)GlcNAc(b1-4)GlcNAc
# Procedure, shortened: as §1
# [4] = molecular target: Gal(b1-3)GlcNAc(b1-2)[Gal(b1-3)GlcNAc(b1-6)]Man(a1-6)[Gal(b1-3)GlcNAc(b1-2)Man(a1-3)]Man(b1-4)GlcNAc(b1-4)GlcNAc
# Procedure, shortened: as §1
# [5] = molecular target: Gal(b1-3)GlcNAc(b1-3)Gal(b1-3)GlcNAc
# Procedure, shortened: as §1
# [6] = molecular target: Gal(b1-3)GlcNAc(b1-3)Gal(b1-4)Glc
# Procedure, shortened: as §1
# [7] = molecular target: Gal(b1-3)GlcNAc(b1-3)Gal(b1-4)GlcNAc
# Procedure, shortened: as §1
# [8] = molecular target: Gal(b1-3)GlcNAc(b1-3)Gal(b1-4)GlcNAc(b1-2)Man(a1-3)[Gal(b1-3)GlcNAc(b1-3)Gal(b1-4)GlcNAc(b1-2)Man(a1-6)]Man(b1-4)GlcNAc(b1-4)GlcNAc
# Procedure, shortened: as §1
# [9] = molecular target: Gal(b1-3)GlcNAc(b1-3)Gal(b1-4)GlcNAc(b1-2)[Gal(b1-3)GlcNAc(b1-3)Gal(b1-4)GlcNAc(b1-6)]Man(a1-6)[Gal(b1-3)GlcNAc(b1-3)Gal(b1-4)GlcNAc(b1-2)Man(a1-3)]Man(b1-4)GlcNAc(b1-4)[Fuc(a1-6)]GlcNAc
# Procedure, shortened: as §1
# [10] = molecular target: Gal(b1-3)GlcNAc(b1-3)Gal(b1-4)GlcNAc(b1-3)Gal(b1-4)GlcNAc(b1-2)[Gal(b1-3)GlcNAc(b1-3)Gal(b1-4)GlcNAc(b1-3)Gal(b1-4)GlcNAc(b1-6)]Man(a1-6)[Gal(b1-3)GlcNAc(b1-3)Gal(b1-4)GlcNAc(b1-3)Gal(b1-4)GlcNAc(b1-2)Man(a1-3)]Man(b1-4)GlcNAc(b1-4)[Fuc(a1-6)]GlcNAc
# Procedure, shortened: as §1
# [11] = molecular target: Gal(b1-3)GlcNAc(b1-3)Gal(b1-4)GlcNAc(b1-6)[Gal(b1-3)GlcNAc(b1-3)]Gal(b1-4)Glc
# Procedure, shortened: as §1
# [12] = molecular target: Gal(b1-3)GlcNAc(b1-3)Gal(b1-4)[Fuc(a1-3)]GlcNAc
# Procedure, shortened: as §1
# [13] = molecular target: Gal(b1-3)GlcNAc(b1-3)Gal(b1-4)[Fuc(a1-3)]GlcNAc(b1-6)[Gal(b1-3)GlcNAc(b1-3)]Gal(b1-4)Glc
# Procedure, shortened: as §1
# [14] = molecular target: Gal(b1-3)GlcNAc(b1-3)GalNAc
# Procedure, shortened: as §1
# [15] = molecular target: Gal(b1-3)GlcNAc(b1-6)Gal(b1-4)GlcNAc
# Procedure, shortened: as §1
# [16] = molecular target: Gal(b1-3)GlcNAc(b1-6)GalNAc
# Procedure, shortened: as §1
# [17] = molecular target: Gal(b1-3)GlcNAc(b1-6)[Gal(b1-3)]GalNAc
# Procedure, shortened: as §1
# Gal(b1-3)GlcNAc6S = molecular target: Gal(b1-3)GlcNAc6S
# Procedure, shortened: as §1
# [18] = molecular target: Gal(b1-3)[Fuc(a1-4)]GlcNAc
# Procedure, shortened: as §1
# [19] = molecular target: Gal(b1-3)[Fuc(a1-4)]GlcNAc(b1-2)Man
# Procedure, shortened: as §1
# [20] = molecular target: Gal(b1-3)[Fuc(a1-4)]GlcNAc(b1-2)Man(a1-3)[Gal(b1-3)[Fuc(a1-4)]GlcNAc(b1-2)Man(a1-6)]Man(b1-4)GlcNAc(b1-4)[Fuc(a1-6)]GlcNAc
# Procedure, shortened: as §1
# [21] = molecular target: Gal(b1-3)[Fuc(a1-4)]GlcNAc(b1-3)Gal(b1-3)[Fuc(a1-4)]GlcNAc
# Procedure, shortened: as §1
# [22] = molecular target: Gal(b1-3)[Fuc(a1-4)]GlcNAc(b1-3)Gal(b1-4)[Fuc(a1-3)]GlcNAc
# Procedure, shortened: as §1
# [23] = molecular target: Gal(b1-3)[Fuc(a1-4)]GlcNAc(b1-6)GalNAc
# Procedure, shortened: as §1
# [24] = molecular target: Gal(b1-3)[GlcNAc(b1-6)]GalNAc
# Procedure, shortened: as §1
# [25] = molecular target: Gal(b1-3)[Neu5Ac(a2-6)]GalNAc
# Procedure, shortened: as §1
# [26] = molecular target: Gal(b1-3)[Neu5Ac(a2-6)]GlcNAc(b1-4)Gal(b1-4)Glc
# Procedure, shortened: as §1
# [27] = molecular target: Gal(b1-3)[Neu5Ac(b2-6)]GalNAc
# Procedure, shortened: as §1
# Gal(b1-4)Gal = molecular target: Gal(b1-4)Gal
# Procedure, shortened: as §1
# [28] = molecular target: Gal(b1-4)GalNAc(a1-3)[Fuc(a1-2)]Gal(b1-4)GlcNAc
# Procedure, shortened: as §1
# [29] = molecular target: Gal(b1-4)GalNAc(b1-3)[Fuc(a1-2)]Gal(b1-4)GlcNAc
# Procedure, shortened: as §1
# Gal(b1-4)Glc = molecular target: Gal(b1-4)Glc
# Procedure, shortened: as §1
# Gal(b1-4)Glc6S = molecular target: Gal(b1-4)Glc6S
# Procedure, shortened: as §1
# Gal(b1-4)GlcNAc = molecular target: Gal(b1-4)GlcNAc
# Procedure, shortened: as §1
# [30] = molecular target: Gal(b1-4)GlcNAc(a1-6)Gal(b1-4)GlcNAc
# Procedure, shortened: as §1
# Gal(b1-4)GlcNAc(b1-2)Man = molecular target: Gal(b1-4)GlcNAc(b1-2)Man
# Procedure, shortened: as §1
# [31] = molecular target: Gal(b1-4)GlcNAc(b1-2)Man(a1-3)Man(b1-4)GlcNAc(b1-4)GlcNAc
# Procedure, shortened: as §1
# [32] = molecular target: Gal(b1-4)GlcNAc(b1-2)Man(a1-3)[Gal(b1-4)GlcNAc(b1-2)Man(a1-6)]Man(b1-4)GlcNAc(b1-4)GlcNAc
# Procedure, shortened: as §1
# [33] = molecular target: Gal(b1-4)GlcNAc(b1-2)Man(a1-3)[Gal(b1-4)GlcNAc(b1-2)Man(a1-6)]Man(b1-4)GlcNAc(b1-4)[Fuc(a1-6)]GlcNAc
# Procedure, shortened: as §1
# [34] = molecular target: Gal(b1-4)GlcNAc(b1-2)Man(a1-3)[Gal(b1-4)GlcNAc(b1-2)Man(a1-6)][Gal(b1-4)GlcNAc(b1-4)]Man(b1-4)GlcNAc(b1-4)[Fuc(a1-6)]GlcNAc
# Procedure, shortened: as §1
# [35] = molecular target: Gal(b1-4)GlcNAc(b1-2)Man(a1-3)[Gal(b1-4)GlcNAc(b1-2)Man(a1-6)][GlcNAc(b1-4)]Man(b1-4)GlcNAc(b1-4)[Fuc(a1-6)]GlcNAc
# Procedure, shortened: as §1
# [36] = molecular target: Gal(b1-4)GlcNAc(b1-2)Man(a1-3)[GlcNAc(b1-2)Man(a1-6)]Man(b1-4)GlcNAc(b1-4)GlcNAc
# Procedure, shortened: as §1
# [37] = molecular target: Gal(b1-4)GlcNAc(b1-2)Man(a1-3)[GlcNAc(b1-4)][Gal(b1-4)GlcNAc(b1-2)Man(a1-6)]Man(b1-4)GlcNAc(b1-4)GlcNAc
# Procedure, shortened: as §1
# [38] = molecular target: Gal(b1-4)GlcNAc(b1-2)Man(a1-3)[Man(a1-6)]Man(b1-4)GlcNAc(b1-4)GlcNAc
# Procedure, shortened: as §1
# [39] = molecular target: Gal(b1-4)GlcNAc(b1-2)Man(a1-6)Man(b1-4)GlcNAc(b1-4)GlcNAc
# Procedure, shortened: as §1
binder,measurement,setting,value
B1,glycan array binding signal (z-score),[1],-0.342
same,glycan array binding signal (z-score),[2],-0.315
same,glycan array binding signal (z-score),[3],-0.781
same,glycan array binding signal (z-score),[4],0.379
same,glycan array binding signal (z-score),[5],-0.089
same,glycan array binding signal (z-score),[6],-0.507
same,glycan array binding signal (z-score),[7],-0.582
same,glycan array binding signal (z-score),[8],-0.517
same,glycan array binding signal (z-score),[9],0.867
same,glycan array binding signal (z-score),[10],-0.059
same,glycan array binding signal (z-score),[11],-0.181
same,glycan array binding signal (z-score),[12],0.65
same,glycan array binding signal (z-score),[13],-0.222
same,glycan array binding signal (z-score),[14],-0.367
same,glycan array binding signal (z-score),[15],3.05
same,glycan array binding signal (z-score),[16],-0.689
same,glycan array binding signal (z-score),[17],-0.066
same,glycan array binding signal (z-score),Gal(b1-3)GlcNAc6S,0.242
same,glycan array binding signal (z-score),[18],-0.1
same,glycan array binding signal (z-score),[19],-0.052
same,glycan array binding signal (z-score),[20],0.226
same,glycan array binding signal (z-score),[21],0.238
same,glycan array binding signal (z-score),[22],0.484
same,glycan array binding signal (z-score),[23],-0.347
same,glycan array binding signal (z-score),[24],0.004
same,glycan array binding signal (z-score),[25],-0.32
same,glycan array binding signal (z-score),[26],-0.501
same,glycan array binding signal (z-score),[27],-0.235
same,glycan array binding signal (z-score),Gal(b1-4)Gal,-0.503
same,glycan array binding signal (z-score),[28],0.515
same,glycan array binding signal (z-score),[29],-0.301
same,glycan array binding signal (z-score),Gal(b1-4)Glc,-0.468
same,glycan array binding signal (z-score),Gal(b1-4)Glc6S,0.57
same,glycan array binding signal (z-score),Gal(b1-4)GlcNAc,-0.033
same,glycan array binding signal (z-score),[30],-0.028
same,glycan array binding signal (z-score),Gal(b1-4)GlcNAc(b1-2)Man,0.656
same,glycan array binding signal (z-score),[31],-0.336
same,glycan array binding signal (z-score),[32],-0.354
same,glycan array binding signal (z-score),[33],0.1
same,glycan array binding signal (z-score),[34],-0.391
same,glycan array binding signal (z-score),[35],-0.678
same,glycan array binding signal (z-score),[36],-0.173
same,glycan array binding signal (z-score),[37],-0.132
same,glycan array binding signal (z-score),[38],0.672
same,glycan array binding signal (z-score),[39],-0.149

# A stretch from further up, for reference:
binder,measurement,setting,value
B1,glycan array binding signal (z-score),[1],-0.342
same,glycan array binding signal (z-score),[2],-0.315
same,glycan array binding signal (z-score),[3],-0.781
same,glycan array binding signal (z-score),[4],0.379
same,glycan array binding signal (z-score),[5],-0.089
same,glycan array binding signal (z-score),[6],-0.507
same,glycan array binding signal (z-score),[7],-0.582
same,glycan array binding signal (z-score),[8],-0.517
same,glycan array binding signal (z-score),[9],0.867
same,glycan array binding signal (z-score),[10],-0.059
same,glycan array binding signal (z-score),[11],-0.181
